PubChem BioAssay AID493246 | Drosophila RNAi Screening Center – 2011
In all, the deposit lists about 21,000 reagents; below is a random part of those that have a named target and a result. In the full data, 429 (2%) were called active. 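Values are raw and not normalised between plates; calls rest on per-plate z-scores that were not deposited.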 Unmarked entries are inactive. Reagent sequences are not shown. Not given: the amount of reagent, the time to read-out.

Assay: 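Genes fly cells need to grow and stay alive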 (primary screen)
Cell system: Drosophila Kc and S2R+ cells
Knock-down reagent: long dsRNA against Drosophila genes
Read-out: 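Raw, unnormalised count of remaining cells in each well; per-plate z-scores of cell number underlie the calls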
Reading the numbers: Kc cell number and S2R+ cell number: higher = more cells remaining
Rule for the call: 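Counted as a hit if cell number falls by a z-score of at least 3 within its plate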

gene knocked down,DRSC id,"Kc cell number, rep 1","Kc cell number, rep 2","S2R+ cell number, rep 1","S2R+ cell number, rep 2"
Ppm1,DRSC08260,1.17e6,1.22e6,1.07e6,1.27e6
Cyp6a20,DRSC07380,1.46e6,1.55e6,1.13e6,1.19e6
E(spl)m7-HLH,DRSC16696,1.35e6,1.45e6,9.91e5,1.14e6
CG6345,DRSC16024,1.40e6,1.44e6,1.37e6,1.35e6
CG7724,DRSC10905,1.83e6,1.86e6,1.46e6,1.42e6
wech,DRSC06606,1.37e6,1.44e6,1.11e6,1.16e6
CG32813,DRSC17948,1.49e6,1.56e6,9.87e5,1.17e6
CG18480,DRSC01957,1.61e6,1.62e6,1.21e6,1.31e6
mRpL51,DRSC02200,1.11e6 (active),1.01e6,7.12e5,6.80e5
alrm,DRSC14436,1.70e6,1.85e6,1.06e6,1.17e6
dj-1beta,DRSC14599,1.44e6,1.47e6,1.01e6,1.11e6
CG11334,DRSC14066,1.24e6,1.59e6,1.12e6,1.17e6
CG11334,DRSC14302,1.57e6,1.57e6,1.05e6,1.16e6
CG6138,DRSC02933,1.74e6,1.89e6,1.43e6,1.55e6
HUWE1,DRSC20089,1.62e6,1.68e6,1.12e6,1.19e6
Cyp6a19,DRSC07379,1.38e6,1.46e6,9.89e5,8.79e5
TBC1D23,DRSC00657,1.47e6,1.53e6,1.04e6,1.22e6
MRP,DRSC02942,1.53e6,1.56e6,1.13e6,1.27e6
tun,DRSC05592,1.56e6,1.52e6,1.09e6,1.24e6
tun,DRSC07127,1.41e6,1.46e6,1.10e6,1.14e6
RpL19,DRSC04649,7.28e5 (active),8.20e5,5.12e5,4.52e5
Prosalpha7,DRSC07516,8.49e5,9.77e5,6.14e5,7.02e5

Hits (from the list above):
gene knocked down,DRSC id,"Kc cell number, rep 1","Kc cell number, rep 2","S2R+ cell number, rep 1","S2R+ cell number, rep 2"
mRpL51,DRSC02200,1.11e6 (active),1.01e6,7.12e5,6.80e5
RpL19,DRSC04649,7.28e5 (active),8.20e5,5.12e5,4.52e5

Continued.
gene knocked down,DRSC id,"Kc cell number, rep 1","Kc cell number, rep 2","S2R+ cell number, rep 1","S2R+ cell number, rep 2"
CG7878,DRSC16330,1.74e6,2.01e6,1.17e6,1.31e6
CG11052,DRSC14288,1.57e6,1.94e6,1.26e6,1.39e6
CG34214,DRSC04490,1.40e6,1.58e6,1.17e6,1.20e6
loaf,DRSC09130,1.37e6,1.51e6,1.11e6,1.23e6
Pits,DRSC19385,1.44e6,1.41e6,8.07e5,9.26e5
Pits,DRSC19812,1.49e6,1.63e6,1.01e6,1.14e6
Lst8,DRSC18262,5.93e5,,9.84e5,
mmm,DRSC10208,1.59e6,1.62e6,1.15e6,1.23e6
clu,DRSC07181,1.41e6,1.38e6,1.12e6,1.17e6
Mnt,DRSC17894,5.37e5,,8.21e5,
Mnt,DRSC18480,1.60e6,1.56e6,9.63e5,1.15e6
CR15821,DRSC08481,1.29e6,1.31e6,1.03e6,1.31e6
Reepl1,DRSC19418,1.68e6,1.57e6,1.04e6,1.12e6
Capa,DRSC15058,5.38e5,,9.35e5,
swa,DRSC18842,5.56e5,,9.21e5,
CG7131,DRSC16203,1.79e6,1.96e6,1.25e6,1.38e6
CG12680,DRSC17871,1.55e6,1.59e6,1.07e6,1.21e6
Ugt36E1,DRSC02599,1.27e6,1.36e6,1.24e6,1.22e6
babos,DRSC03923,5.29e5,,9.20e5,
babos,DRSC04397,1.36e6,1.47e6,1.03e6,1.16e6
CG1233,DRSC08269,1.38e6,1.42e6,1.33e6,1.31e6
Acer,DRSC01852,1.43e6,1.27e6,1.08e6,1.04e6
ND-SGDH,DRSC11102,1.31e6,1.41e6,1.20e6,1.26e6
CG2906,DRSC06841,1.54e6,1.50e6,1.35e6,1.39e6
CG30275,DRSC04163,1.59e6,1.70e6,1.36e6,1.45e6
Cipc,DRSC14898,5.00e5,,7.95e5,
Cipc,DRSC14900,1.60e6,1.69e6,1.01e6,1.12e6
CG42382,DRSC07671,1.41e6,1.53e6,1.29e6,1.29e6
CG17493,DRSC03798,1.55e6,1.58e6,1.02e6,3.93e5
Ucp4C,DRSC03132,1.55e6,1.40e6,1.08e6,1.25e6
CG9300,DRSC11064,1.48e6,1.58e6,1.17e6,1.25e6
dare,DRSC07602,1.26e6,1.36e6,1.10e6,1.06e6
Ser6,DRSC20574,1.45e6,1.50e6,1.08e6,1.17e6
Cht7,DRSC08538,9.34e5,1.20e6,1.19e6,8.87e5
CG4830,DRSC15657,1.63e6,1.55e6,1.34e6,1.50e6
CG10565,DRSC11620,1.53e6,1.58e6,1.41e6,1.42e6
Prosalpha5,DRSC07514,5.77e5 (active),6.81e5,3.18e5,4.23e5
